PubChem BioAssay AID1259308 | NCATS, 2017
Purpose: 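Knock-downs that increase output of a recombinant reporter protein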 (primary screen). Cell system: human HEK293 embryonic kidney cells stably expressing firefly luciferase (HEK-CMV-Luc2-Hygro). Knock-down reagent: single siRNA against human genes, 0.8 pmol siRNA per well. Duration: 72 h. Measurement: 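Luciferase light (ONE-Glo) measured on one replicate plate set and viability (CellTiter-Glo) on the other, scaled to a negative control siRNA, with robust z-scores and luciferase per cell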. Direction: total luciferase, z-score and total luciferase, % of control: higher = more reporter protein produced; luciferase per cell, z-score: higher = more reporter output per viable cell. Call rule: 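Active when the median/MAD z-score for overall luciferase is greater than 3; a gene was taken forward for validation with new siRNAs if at least two of its three siRNAs passed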. Meaning of the calls: active = raised luciferase; inactive = no rise.
Shown is one part, drawn at random, of about 59,000 reagents tested. About 1,510 of all reagents (2.6%) were called active. 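Calls use total luciferase alone and ignore viability, so some active siRNAs may act by altering cell number.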 The numbers tell different reagents against one gene apart. Not all columns of the deposit are shown.

| gene | siRNA no. | total luciferase, z-score | total luciferase, % of control | luciferase per cell, z-score | Call |
| --- | --- | --- | --- | --- | --- |
| ZBTB22 (zinc finger and BTB domain containing 22) | 1 | 0.606 | 93.9 | 0.0935 | inactive |
| ZBTB22 (zinc finger and BTB domain containing 22) | 2 | 0.937 | 101 | 0.543 | inactive |
| ZBTB22 (zinc finger and BTB domain containing 22) | 3 | 0.452 | 90.9 | 0.704 | inactive |
| RPS2P45 (ribosomal protein S2 pseudogene 45) | 1 | 0.182 | 85.5 | 1.63 | inactive |
| RPS2P45 (ribosomal protein S2 pseudogene 45) | 2 | 0.174 | 85.3 | -0.122 | inactive |
| RPS2P45 (ribosomal protein S2 pseudogene 45) | 3 | 0.294 | 87.7 | 0.383 | inactive |
| TRPT1 (tRNA phosphotransferase 1) | 1 | -0.00325 | 81.8 | 0.223 | inactive |
| TRPT1 (tRNA phosphotransferase 1) | 2 | -0.971 | 62.6 | -0.951 | inactive |
| TRPT1 (tRNA phosphotransferase 1) | 3 | -0.596 | 70 | -1.18 | inactive |
| LINC01300 (long independently transcribed non-coding RNA 1300) | 1 | 1.47 | 111 | 1.33 | inactive |
| LINC01300 (long independently transcribed non-coding RNA 1300) | 2 | -0.156 | 78.8 | 0.76 | inactive |
| LINC01300 (long independently transcribed non-coding RNA 1300) | 3 | 0.268 | 87.2 | 0.614 | inactive |
| AFDN-DT (AFDN divergent transcript) | 1 | -2.12 | 39.7 | 1.61 | inactive |
| AFDN-DT (AFDN divergent transcript) | 2 | -0.669 | 68.6 | 0.478 | inactive |
| AFDN-DT (AFDN divergent transcript) | 3 | 0.79 | 97.6 | -0.0167 | inactive |
| ZCCHC2 (zinc finger CCHC-type containing 2) | 1 | -0.112 | 79.7 | 1.15 | inactive |
| ZCCHC2 (zinc finger CCHC-type containing 2) | 2 | 1.45 | 111 | 0.916 | inactive |
| ZCCHC2 (zinc finger CCHC-type containing 2) | 3 | 0.501 | 91.9 | -0.359 | inactive |
| RGL1 (ral guanine nucleotide dissociation stimulator like 1) | 1 | -0.222 | 77.5 | -0.613 | inactive |
| RGL1 (ral guanine nucleotide dissociation stimulator like 1) | 2 | -1.24 | 57.2 | -1.01 | inactive |
| RGL1 (ral guanine nucleotide dissociation stimulator like 1) | 3 | -1.29 | 56.3 | -1.44 | inactive |
| TKT (transketolase) | 1 | -0.571 | 70.5 | -0.523 | inactive |
| TKT (transketolase) | 2 | -1.29 | 56.2 | -0.377 | inactive |
| TKT (transketolase) | 3 | -0.331 | 75.3 | 0.0423 | inactive |
| NME6 (NME/NM23 nucleoside diphosphate kinase 6) | 1 | 0.331 | 88.5 | 0.184 | inactive |
| NME6 (NME/NM23 nucleoside diphosphate kinase 6) | 2 | 1.58 | 113 | 1.21 | inactive |
| NME6 (NME/NM23 nucleoside diphosphate kinase 6) | 3 | -0.651 | 68.9 | -1.6 | inactive |
| CCR4 (C-C motif chemokine receptor 4) | 1 | 0.112 | 84.1 | -0.132 | inactive |
| CCR4 (C-C motif chemokine receptor 4) | 2 | -0.37 | 74.5 | -0.499 | inactive |
| CCR4 (C-C motif chemokine receptor 4) | 3 | -1.27 | 56.7 | -1.12 | inactive |
| KCNE1 | 1 | -0.75 | 67 | -0.762 | inactive |
| KCNE1 | 2 | 1.13 | 104 | 0.885 | inactive |
| KCNE1 | 3 | 2.84 | 138 | 2.26 | inactive |
| KBTBD7 (kelch repeat and BTB domain containing 7) | 1 | 0.312 | 88.1 | 0.0716 | inactive |
| KBTBD7 (kelch repeat and BTB domain containing 7) | 2 | -0.298 | 76 | -0.719 | inactive |
| KBTBD7 (kelch repeat and BTB domain containing 7) | 3 | 1.42 | 110 | 0.656 | inactive |
| LIN52 (lin-52 DREAM MuvB core complex component) | 1 | -0.438 | 73.2 | -0.906 | inactive |
| LIN52 (lin-52 DREAM MuvB core complex component) | 2 | -1.64 | 49.3 | -1.76 | inactive |
| LIN52 (lin-52 DREAM MuvB core complex component) | 3 | 0.268 | 87.2 | -1.05 | inactive |
| USP6NL (USP6 N-terminal like) | 1 | -0.52 | 71.5 | -0.378 | inactive |
| USP6NL (USP6 N-terminal like) | 2 | -0.0401 | 81.1 | -0.303 | inactive |
| USP6NL (USP6 N-terminal like) | 3 | 0.362 | 89.1 | -0.0544 | inactive |
| GEMIN2 (gem nuclear organelle associated protein 2) | 1 | 3.03 | 142 | 0.991 | active |
| GEMIN2 (gem nuclear organelle associated protein 2) | 2 | 1.3 | 108 | 0.572 | inactive |
| GEMIN2 (gem nuclear organelle associated protein 2) | 3 | 1.06 | 103 | 0.425 | inactive |
| KCNN1 (potassium calcium-activated channel subfamily N member 1) | 1 | -0.745 | 67.1 | -0.782 | inactive |
| KCNN1 (potassium calcium-activated channel subfamily N member 1) | 2 | 0.317 | 88.2 | 0.117 | inactive |
| KCNN1 (potassium calcium-activated channel subfamily N member 1) | 3 | -0.182 | 78.3 | -0.455 | inactive |
| TPSD1 (tryptase delta 1) | 1 | 0.234 | 86.5 | 0.248 | inactive |
| TPSD1 (tryptase delta 1) | 2 | -0.717 | 67.6 | -0.834 | inactive |
| TPSD1 (tryptase delta 1) | 3 | 2.31 | 128 | 1.72 | inactive |
| TMED3 (transmembrane p24 trafficking protein 3) | 1 | -1.26 | 56.7 | -0.886 | inactive |
| TMED3 (transmembrane p24 trafficking protein 3) | 2 | 0.106 | 84 | -0.111 | inactive |
| TMED3 (transmembrane p24 trafficking protein 3) | 3 | 2.13 | 124 | 1.49 | inactive |
| TEAD3 (TEA domain transcription factor 3) | 1 | 1.04 | 103 | 1.27 | inactive |
| TEAD3 (TEA domain transcription factor 3) | 2 | -0.381 | 74.3 | -0.853 | inactive |
| TEAD3 (TEA domain transcription factor 3) | 3 | -1.9 | 44.1 | -0.283 | inactive |

Entries above with an active call (1):
| gene | siRNA no. | total luciferase, z-score | total luciferase, % of control | luciferase per cell, z-score | Call |
| --- | --- | --- | --- | --- | --- |
| GEMIN2 (gem nuclear organelle associated protein 2) | 1 | 3.03 | 142 | 0.991 | active |
